In PMC11624269:
No constants are given. Whether binding was seen depends on the method and setting. Binding seen in cells or lysates may run through a third protein. Here binding means that the protein was enriched with, or labelled near, the bait; the list need not be complete.

The chains behind the UniProt entries cited, without tags or fusion partners.
UniProt P41229: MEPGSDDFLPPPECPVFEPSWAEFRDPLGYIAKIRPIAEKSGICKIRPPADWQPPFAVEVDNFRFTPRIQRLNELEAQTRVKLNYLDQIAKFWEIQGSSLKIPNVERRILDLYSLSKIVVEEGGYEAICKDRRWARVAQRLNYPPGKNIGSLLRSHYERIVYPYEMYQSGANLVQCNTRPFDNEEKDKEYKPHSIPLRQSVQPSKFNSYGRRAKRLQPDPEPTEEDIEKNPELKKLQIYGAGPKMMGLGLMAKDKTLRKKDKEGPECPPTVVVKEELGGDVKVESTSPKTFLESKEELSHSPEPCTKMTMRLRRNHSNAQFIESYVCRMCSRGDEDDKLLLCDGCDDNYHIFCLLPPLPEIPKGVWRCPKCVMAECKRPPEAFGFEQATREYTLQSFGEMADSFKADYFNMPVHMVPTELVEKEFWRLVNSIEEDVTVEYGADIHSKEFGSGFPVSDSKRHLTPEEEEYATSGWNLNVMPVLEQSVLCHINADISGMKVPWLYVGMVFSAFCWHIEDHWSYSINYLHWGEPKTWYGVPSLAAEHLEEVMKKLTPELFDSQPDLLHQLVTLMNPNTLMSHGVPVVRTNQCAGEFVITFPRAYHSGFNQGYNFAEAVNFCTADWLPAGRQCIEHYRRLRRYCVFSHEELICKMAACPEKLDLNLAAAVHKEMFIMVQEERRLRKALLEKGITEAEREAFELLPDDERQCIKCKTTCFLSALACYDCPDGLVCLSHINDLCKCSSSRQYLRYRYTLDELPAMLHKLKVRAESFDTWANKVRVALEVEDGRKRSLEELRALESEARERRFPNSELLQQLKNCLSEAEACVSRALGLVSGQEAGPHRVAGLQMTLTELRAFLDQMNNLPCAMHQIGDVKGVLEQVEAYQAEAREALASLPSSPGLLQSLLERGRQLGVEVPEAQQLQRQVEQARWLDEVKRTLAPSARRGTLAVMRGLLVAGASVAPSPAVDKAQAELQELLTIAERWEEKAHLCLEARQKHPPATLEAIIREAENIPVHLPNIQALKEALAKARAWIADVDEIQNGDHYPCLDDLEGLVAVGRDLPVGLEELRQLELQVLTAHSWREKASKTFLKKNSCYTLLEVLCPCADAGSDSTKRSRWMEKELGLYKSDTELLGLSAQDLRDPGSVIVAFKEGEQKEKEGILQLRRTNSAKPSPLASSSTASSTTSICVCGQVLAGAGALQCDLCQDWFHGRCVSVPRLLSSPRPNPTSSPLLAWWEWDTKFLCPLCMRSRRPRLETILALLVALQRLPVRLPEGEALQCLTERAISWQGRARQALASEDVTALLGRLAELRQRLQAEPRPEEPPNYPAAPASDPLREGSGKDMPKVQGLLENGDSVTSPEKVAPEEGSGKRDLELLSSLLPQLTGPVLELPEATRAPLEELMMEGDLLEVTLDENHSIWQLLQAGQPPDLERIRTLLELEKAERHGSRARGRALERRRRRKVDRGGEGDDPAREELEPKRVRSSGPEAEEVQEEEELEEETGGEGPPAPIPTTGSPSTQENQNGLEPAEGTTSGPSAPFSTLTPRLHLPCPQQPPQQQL
UniProt P25490: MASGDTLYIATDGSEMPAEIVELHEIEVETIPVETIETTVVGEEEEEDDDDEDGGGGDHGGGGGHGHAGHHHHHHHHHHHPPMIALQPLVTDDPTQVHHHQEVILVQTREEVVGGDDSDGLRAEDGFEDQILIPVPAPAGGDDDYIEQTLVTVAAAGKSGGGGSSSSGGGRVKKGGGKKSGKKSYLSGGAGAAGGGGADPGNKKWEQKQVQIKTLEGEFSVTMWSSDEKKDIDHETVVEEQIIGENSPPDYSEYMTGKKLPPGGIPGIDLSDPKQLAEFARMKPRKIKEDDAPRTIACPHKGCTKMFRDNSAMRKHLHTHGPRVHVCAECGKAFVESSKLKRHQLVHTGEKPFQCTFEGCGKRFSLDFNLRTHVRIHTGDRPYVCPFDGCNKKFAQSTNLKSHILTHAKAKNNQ

Biological target: SBP- and Flag-tagged KDM5C (human) (UniProt P41229)
Assay: affinity purification with mass spectrometry; tandem affinity purification from HEK293T cells stably expressing SBP-Flag-KDM5C: IP lysis buffer, strep beads overnight at 4 °C, biotin elution, anti-Flag magnetic beads, SDS-PAGE, mass spectrometry

binding: binds
Substance: Yin Yang 1 (YY1), endogenous in HEK293T cells (from UniProt P25490 1-414)
